{"source": "PubChem BioAssay AID2417", "about": "(National Center for Advancing Translational Sciences (NCATS), 2010)", "note": "Hit rate of the full screen: of about 140,000 compounds, about 4,300 (3.1%) were called active. The inconclusive results got no clear call from the source; some entries with a clear call stand among them for comparison.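 The calls were made as follows: active = readout at or below -70, meaning at least 70% loss of cells showing the perinucleolar compartment, a nuclear body marking cancer cells; inconclusive = readout between -30 and a set limit; inactive = the rest.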", "data": [{"test": "High Content Assay for Compounds that inhibit the Assembly of the Perinucleolar Compartment;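 also: plate controls were DMSO wells for no effect and camptothecin positive control wells for full effect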", "settings": "PC3M PTB-GFP, PNC prevalence imaging, 16 h; at 10 µM; hits give low values", "outline": "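Compounds are pinned in duplicate onto adhered PC3M cells stably expressing GFP-tagged PTB and incubated 16 h at 37 C. Cells are then fixed, nuclei stained with Hoechst, and PNC-positive cells counted.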", "values": [{"smiles": "COC(=O)c1c(CSc2ccc(Cl)cc2)noc1C(=O)NCc1ccco1", "activity change (PNC), negative = inhibition": "inactive: 0%"}, {"smiles": "NC(=S)Nc1ccc(Oc2ccc(NC(N)=S)cc2)cc1", "activity change (PNC), negative = inhibition": "inconclusive: -30.4%"}, {"smiles": "N#CC1=C(Nc2ccccc2)SC=C(c2ccccc2)N=C1N1CCOCC1", "activity change (PNC), negative = inhibition": "inactive: -12.1%"}, {"smiles": "COc1ccc(Cl)cc1S(=O)(=O)N1CCN(c2ccc(F)cc2)CC1", "activity change (PNC), negative = inhibition": "inconclusive: -35.2%"}, {"smiles": "O=C(CCS(=O)(=O)Cc1ccccc1)NC1CCCCC1", "activity change (PNC), negative = inhibition": "inconclusive: -33.8%"}, {"smiles": "CCC1CCCCN1Cc1nc2c(c(=O)n(C)c(=O)n2C)n1Cc1ccccc1", "note": "(configuration not stated)", "activity change (PNC), negative = inhibition": "inconclusive: -39%"}, {"smiles": "Cc1cccc(NC(=S)Nc2ccc(Oc3ccccc3)cc2)n1", "activity change (PNC), negative = inhibition": "inconclusive: -32.8%"}, {"smiles": "CC(=O)c1cc(CN2C(=O)CCC2=O)cs1", "activity change (PNC), negative = inhibition": "inconclusive: -77.4%"}, {"smiles": "CCOc1ccc(C2c3c(oc4ccccc4c3=O)C(=O)N2c2ccc(C)cn2)cc1OC", "note": "(configuration not stated)", "activity change (PNC), negative = inhibition": "inactive: 0.439%"}, {"smiles": "CCC1(c2ccc(F)cc2)NC(=O)N(CC(=O)c2ccc[nH]2)C1=O", "note": "(configuration not stated)", "activity change (PNC), negative = inhibition": "inconclusive: -56.7%"}, {"smiles": "O=[N+]([O-])c1ccc(Cl)c(/C=N/n2c(-c3cccnc3)n[nH]c2=S)c1", "activity change (PNC), negative = inhibition": "inactive: 3.12%"}, {"smiles": "O=C(Nc1ccc2c(c1)OCO2)c1cnn2c1NC(c1ccco1)CC2C(F)(F)F", "note": "(configuration not stated)", "activity change (PNC), negative = inhibition": "inconclusive: -48.9%"}, {"smiles": "COc1ccc(/C=N/N2CCOCC2)cc1COc1ccc(Cl)cc1", "activity change (PNC), negative = inhibition": "active: -111%"}, {"smiles": "N/C(=N\\c1nc2c(c(=O)[nH]1)CCCC2)Nc1ccc(Oc2ccccc2)cc1", "activity change (PNC), negative = inhibition": "inconclusive: -32.2%"}, {"smiles": "Cc1cc(C)c(C)c(/C=C(/C#N)C(N)=S)c1C", "activity change (PNC), negative = inhibition": "inactive: -23.9%"}, {"smiles": "CCC(C)C(NC(=O)OC(C)(C)C)C(=O)NC(Cc1ccccc1)C(=O)OC", "note": "(configuration not stated)", "activity change (PNC), negative = inhibition": "inconclusive: -33%"}, {"smiles": "Cc1ccc(NC(=S)N(CCN(C)C)Cc2cc3cc(C)cc(C)c3[nH]c2=O)cc1", "activity change (PNC), negative = inhibition": "active: -116%"}, {"smiles": "CNC(=O)/C(=C\\C=C\\c1ccccc1)NC(=O)c1ccc([N+](=O)[O-])cc1", "activity change (PNC), negative = inhibition": "inconclusive: -66.3%"}, {"smiles": "O=C(CNC(=O)c1ccccc1)OCc1ccc([N+](=O)[O-])cc1", "activity change (PNC), negative = inhibition": "inconclusive: -36.3%"}, {"smiles": "O=S(=O)(CCSc1nc2ccccc2o1)Cc1ccccc1", "activity change (PNC), negative = inhibition": "inconclusive: -43%"}, {"smiles": "Cc1nn(-c2ccccc2)c(Cl)c1C(=O)NCc1cccs1", "activity change (PNC), negative = inhibition": "inconclusive: -65.8%"}, {"smiles": "CCC1(COC(NC(=O)c2cccnc2)(C(F)(F)F)C(F)(F)F)COC1", "activity change (PNC), negative = inhibition": "inconclusive: -72.5%"}, {"smiles": "COC(=O)c1ccc(Sc2ccc(F)cc2)c(N)c1", "activity change (PNC), negative = inhibition": "inconclusive: -43.4%"}, {"smiles": "CC(C)=NN/C(N)=N/C(=S)Nc1ccc(C)cc1", "activity change (PNC), negative = inhibition": "inconclusive: -44.8%"}, {"smiles": "CCCn1c(CN(C)Cc2ccccc2)nc2c1c(=O)n(C)c(=O)n2C", "activity change (PNC), negative = inhibition": "inactive: -22.3%"}, {"smiles": "COc1cccc(S(=O)(=O)NCc2ccc3c(c2)OCO3)c1", "activity change (PNC), negative = inhibition": "inconclusive: -33.4%"}, {"smiles": "CCOC(=O)c1[nH]c2ccc(F)cc2c1NC(=O)CCN1CCOCC1", "activity change (PNC), negative = inhibition": "inconclusive: -63.6%"}, {"smiles": "C=CCn1c(COC)nnc1SCC(=O)c1ccc(F)cc1", "activity change (PNC), negative = inhibition": "inconclusive: -41%"}, {"smiles": "Cc1ccc(SCCNC(=O)/C=C/c2ccc(Cl)cc2)cc1", "activity change (PNC), negative = inhibition": "inactive: -24.2%"}, {"smiles": "CC1CCN(C(=O)CCCOc2cc(=O)n(C)c3ccccc23)CC1", "activity change (PNC), negative = inhibition": "inconclusive: -36.2%"}, {"smiles": "COc1cc(/C=C/C(=O)c2ccc(C)cc2)ccc1OCC#N", "activity change (PNC), negative = inhibition": "inconclusive: -47.5%"}, {"smiles": "Cn1nnc2c(sc3nc(N4CCOCC4)c4c(c32)CCCC4)c1=O", "activity change (PNC), negative = inhibition": "inconclusive: -41%"}, {"smiles": "CC1CCN(c2nc3c(c(=O)[nH]c(=O)n3C)n2Cc2ccccc2Cl)CC1", "activity change (PNC), negative = inhibition": "inconclusive: -38.6%"}, {"smiles": "CCc1nnc(NC(=O)CN2CCC(O)(c3ccccc3OC)CC2)s1", "activity change (PNC), negative = inhibition": "inconclusive: -32.2%"}, {"smiles": "COC(=O)C[N+](C)(C)CC#Cc1ccccc1", "activity change (PNC), negative = inhibition": "inconclusive: -64.4%"}, {"smiles": "Cc1ccc(N=C2NC(=O)/C(=C\\c3ccco3)S2)cc1", "activity change (PNC), negative = inhibition": "inconclusive: -65.4%"}, {"smiles": "Cc1ccn2cc(CCNS(=O)(=O)c3ccc4c(c3)CCCC4)nc2c1", "activity change (PNC), negative = inhibition": "inactive: -7.2%"}, {"smiles": "O=c1[nH]c(N2CCOCC2)nc2c1CCCC2", "activity change (PNC), negative = inhibition": "inconclusive: -30.8%"}, {"smiles": "O=c1n(S(=O)(=O)c2cccc3cccnc23)c2ccccc2n1S(=O)(=O)c1cccc2cccnc12", "activity change (PNC), negative = inhibition": "inconclusive: -34.9%"}, {"smiles": "CCn1ncc(Br)c1C(=O)Nc1nccs1", "activity change (PNC), negative = inhibition": "inconclusive: -50.6%"}, {"smiles": "CC(=O)Nc1ccc(N2C(=O)C3C4CC(=O)C(c5ccccc54)C3C2=O)cc1", "note": "(configuration not stated)", "activity change (PNC), negative = inhibition": "inactive: 13.1%"}, {"smiles": "Cc1ccc(/C=N/N2CCN(Cc3ccc(Cl)cc3)CC2)o1", "activity change (PNC), negative = inhibition": "inactive: -23.9%"}, {"smiles": "CCOC(=O)N1CCN(c2c(NCc3ccccc3OC)c(=O)c2=O)CC1", "activity change (PNC), negative = inhibition": "inactive: -19.3%"}, {"smiles": "O=C(CSc1ccc(-c2cccs2)nn1)N1CCCCCC1", "activity change (PNC), negative = inhibition": "inconclusive: -33.9%"}, {"smiles": "CC1=C(C(=O)OC(C)C)C2(O)C(=O)c3ccccc3C2(O)N1", "note": "(configuration not stated)", "activity change (PNC), negative = inhibition": "inconclusive: -43.7%"}, {"smiles": "COc1cccc(N2C(=O)C3CCCN3C2c2ccc(N(C)C)cc2)c1", "note": "(configuration not stated)", "activity change (PNC), negative = inhibition": "inactive: -28%"}, {"smiles": "COc1ccc(N(C(=O)/C=C/C(=O)Nc2cc(C)on2)C(C(=O)NC2CCCC2)c2ccccc2C)cc1", "note": "(configuration not stated)", "activity change (PNC), negative = inhibition": "inconclusive: -49%"}, {"smiles": "CCn1c(CSc2nc3ccccc3s2)nnc1SCC(=O)c1ccc(O)cc1O", "activity change (PNC), negative = inhibition": "inactive: -28.4%"}, {"smiles": "CC(=O)N1CCN(c2ccc(NCc3ccc(C)cc3)cc2)CC1", "activity change (PNC), negative = inhibition": "inconclusive: -65%"}, {"smiles": "O=C(COC(=O)c1ccc([N+](=O)[O-])s1)NC(c1ccccc1)c1ccccc1", "activity change (PNC), negative = inhibition": "active: -116%"}, {"smiles": "COc1cc(/C(C)=N/NC(=O)Cc2c(C)[nH][nH]c2=O)ccc1O", "activity change (PNC), negative = inhibition": "inconclusive: -38.4%"}, {"smiles": "Cc1cc(N2CCN(c3ccccc3)CC2)n2nnnc2n1", "activity change (PNC), negative = inhibition": "inactive: -24.2%"}, {"smiles": "CC(OC(=O)CNC(=O)c1ccc2c(c1)OCO2)C(=O)NCCC1=CCCCC1", "note": "(configuration not stated)", "activity change (PNC), negative = inhibition": "inconclusive: -55.7%"}, {"smiles": "COc1ccc2c(c1OC)C(=O)N1N=C(c3ccc(Br)cc3)CC21", "note": "(configuration not stated)", "activity change (PNC), negative = inhibition": "inactive: -28.4%"}, {"smiles": "CN(C)c1ccc(NC(=S)NCC2CCCO2)cc1", "note": "(configuration not stated)", "activity change (PNC), negative = inhibition": "inconclusive: -33.4%"}, {"smiles": "CCOC(=O)c1c(NC(=O)c2cc3n(n2)C(C(F)(F)F)CC(c2ccccc2)N3)sc(C)c1C", "note": "(configuration not stated)", "activity change (PNC), negative = inhibition": "inconclusive: -46.3%"}, {"smiles": "COc1cc(/C=N/NC(=O)c2cccc([N+](=O)[O-])c2)ccc1OCc1ccc(C)cc1", "activity change (PNC), negative = inhibition": "inconclusive: -45.5%"}]}]}
